Results taken from patent US5726155A, “Regulation of oxidative burst using LMWG-derived peptides and analogs” (The Scripps Research Institute, priority 1993, dated 1998).
Not every detail of the peptide structures is certain; ends, links or a residue may be inferred. Where no end group is shown, it is not given here.

Sequences of proteins named here, by UniProt entry; tags and fusion partners are left off. A change or cut given only in a name is not applied to a line headed by its entry. Residues count along the entry.
UniProt P04839, 2-570 limits assumed: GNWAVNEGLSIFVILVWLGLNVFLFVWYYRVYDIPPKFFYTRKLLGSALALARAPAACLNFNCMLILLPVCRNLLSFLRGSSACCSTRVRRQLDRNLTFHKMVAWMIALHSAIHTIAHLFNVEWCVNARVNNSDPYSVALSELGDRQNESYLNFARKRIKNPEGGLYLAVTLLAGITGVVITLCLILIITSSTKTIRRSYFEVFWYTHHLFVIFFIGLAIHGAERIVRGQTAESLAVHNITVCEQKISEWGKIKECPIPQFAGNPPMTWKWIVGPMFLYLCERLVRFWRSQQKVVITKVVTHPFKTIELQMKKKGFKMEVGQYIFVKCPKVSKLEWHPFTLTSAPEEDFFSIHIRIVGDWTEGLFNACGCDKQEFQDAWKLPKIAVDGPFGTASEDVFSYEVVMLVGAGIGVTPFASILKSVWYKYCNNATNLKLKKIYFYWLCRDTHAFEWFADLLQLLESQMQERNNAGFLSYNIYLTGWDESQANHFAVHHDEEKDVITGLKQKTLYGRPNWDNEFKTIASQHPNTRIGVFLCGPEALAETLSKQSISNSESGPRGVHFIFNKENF
UniProt P13498, 2-195 limits assumed: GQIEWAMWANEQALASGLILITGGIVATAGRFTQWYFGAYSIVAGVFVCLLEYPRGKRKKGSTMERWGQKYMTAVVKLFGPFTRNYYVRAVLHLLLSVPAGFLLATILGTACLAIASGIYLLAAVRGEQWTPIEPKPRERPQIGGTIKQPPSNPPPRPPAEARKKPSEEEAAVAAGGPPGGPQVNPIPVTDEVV
UniProt P14598: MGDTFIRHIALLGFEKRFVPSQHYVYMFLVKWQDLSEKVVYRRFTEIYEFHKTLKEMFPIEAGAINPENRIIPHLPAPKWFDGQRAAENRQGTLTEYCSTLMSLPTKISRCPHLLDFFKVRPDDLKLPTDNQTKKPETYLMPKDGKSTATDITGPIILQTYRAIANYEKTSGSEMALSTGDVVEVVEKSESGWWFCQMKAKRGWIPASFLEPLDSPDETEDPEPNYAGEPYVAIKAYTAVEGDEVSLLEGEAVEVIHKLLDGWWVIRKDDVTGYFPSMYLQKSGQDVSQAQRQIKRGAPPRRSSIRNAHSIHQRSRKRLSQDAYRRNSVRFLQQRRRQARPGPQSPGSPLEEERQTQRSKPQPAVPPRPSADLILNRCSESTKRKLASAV
UniProt P19878: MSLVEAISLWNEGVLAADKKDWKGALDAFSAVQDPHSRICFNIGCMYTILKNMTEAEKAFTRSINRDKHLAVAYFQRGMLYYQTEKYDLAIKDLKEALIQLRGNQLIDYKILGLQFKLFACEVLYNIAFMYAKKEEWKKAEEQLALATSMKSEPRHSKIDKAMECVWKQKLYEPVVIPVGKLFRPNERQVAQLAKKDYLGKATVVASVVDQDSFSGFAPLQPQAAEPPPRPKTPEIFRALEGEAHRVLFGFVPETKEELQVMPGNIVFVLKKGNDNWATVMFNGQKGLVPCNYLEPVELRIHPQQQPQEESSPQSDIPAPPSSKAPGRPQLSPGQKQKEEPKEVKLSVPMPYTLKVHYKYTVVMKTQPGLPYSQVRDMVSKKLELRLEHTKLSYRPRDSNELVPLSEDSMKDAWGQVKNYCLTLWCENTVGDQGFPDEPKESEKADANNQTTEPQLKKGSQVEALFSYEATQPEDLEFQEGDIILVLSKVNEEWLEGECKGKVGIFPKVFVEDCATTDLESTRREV

Target: T1, NADPH oxidase (Homo sapiens, UniProt P04839+P13498+P14598+P19878)
T1 construct: 4×10^5 cell equivalents (cell eq) of neutrophil membranes; of neutrophil cytosol, or (2) 100 nM each of baculovirus recombinant p47-phox and p67-phox; from tissue; host or cells: neutrophil membranes and cytosol (human neutrophils, leukapheresis or blood)
Test: cell-free NADPH oxidase assay (O2- production), inhibition by peptides
Format: biochemical
Settings: Table 3; peptide incubated five minutes before 90 μM SDS or 100 μM arachidonic acid
Method: Production of O2^- by NADPH oxidase may be monitored in a cell-free system at 25° C. by following the superoxide dismutase (SOD)-inhibitable reduction of cytochrome c at […], as described in Curnutte, et al., PNAS USA 86: 825-829 (1989). The method may be described essentially as follows.
Activation of the dormant respiratory burst oxidase in a cell-free system by SDS in the presence of cytosol (or partially-purified cytosol factor components) was monitored by measuring O2^- production by the activated oxidase. O2^- generation was determined by a continuous assay in which superoxide dismutase-inhibitable cytochrome c reduction was followed with time at 25° C. in a double-beam spectrophotometer at 550 nm by a modification of the method described in Curnutte, et al., J. Biol. Chem. 262: 6450-6452 (1987). Assay mixtures contained (final concentration) 0.15 mM cytochrome c, 6.5 mM MgCl2, 87 mM KCl, 2.6 mM NaCl, 8.7 mM PIPES (pH 7.3), 0.27 mM ATP (Sigma), 0.33 mM EGTA, 0.16 mM NADPH, and 0.04 mM SDS, plus 0.9×10^7 cell eq of cytosol and 1.55×10^6 cell eq of membranes solubilized in deoxycholate (0.94 mM) in 375 μl. The reference cuvette also received 22.5 μg of superoxide dismutase. All components except NADPH were mixed in the cuvette and allowed to stand for 3.5 minutes to allow activation of the oxidase by SDS. […]
A modification of the above-noted method was used for most of the studies described herein and may be summarized as follows. […] Maximum rates of absorbance change, calculated from the first derivative of the time course using Softmax software (Molecular Devices, release 2.01, Menlo Park, Calif., were converted to nmol O2^- generated/min/10^7 cell eq of membrane, after subtracting the rate achieved in the presence of SOD from that obtained in its absence, to give the rate of O2^- -dependent cytochrome c reduction, by using an extinction coefficient of 20.5 mM^-1 cm^-1 for reduced minus oxidized cytochrome c, a value determined experimentally for the 550±1-nm filter used in the kinetic microplate reader and the path length of the 250-μl reaction mixture. […]

GLTISSLFSRLFGKKQ [ARF 26, GLTISSLFSRLFGKKQ]
Inhibitory Activity: Low Activity

SSLFSRLFGKKQ [ARF 28, SSLFSRLFGKKQ]
Inhibitory Activity: Low Activity

TISSLFSRLFGKKQ [ARF 27, TISSLFSRLFGKKQ]
Inhibitory Activity: Low Activity
